Reference: PubChem BioAssay AID1259308 (NCATS, 2017)

Assay: 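Genes whose loss raises luciferase production in HEK293 cells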 (primary screen)
Cell system: human HEK293 embryonic kidney cells stably expressing firefly luciferase (HEK-CMV-Luc2-Hygro)
Knock-down reagent: single siRNA against human genes, 0.8 pmol siRNA per well
Duration: 72 h
Measured: 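Luciferase light (ONE-Glo) measured on one replicate plate set and viability (CellTiter-Glo) on the other, scaled to a negative control siRNA, with robust z-scores and luciferase per cell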
Reading the numbers: total luciferase, z-score and total luciferase, % of control: higher = more reporter protein produced; luciferase per cell, z-score: higher = more reporter output per viable cell; viable cells, % of control: higher = more viable cells
Active means: 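An siRNA counts as active if its total luciferase robust z-score exceeds 3; genes with two or more such siRNAs out of three were retested with fresh siRNAs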
Calls: active = raised luciferase; inactive = no rise
Shown is an unselected part of about 59,000 reagents tested. Over the whole deposit, about 1,510 (2.6%) are marked active. 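Calls use total luciferase alone and ignore viability, so some active siRNAs may act by altering cell number.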 Reagents against one gene are numbered here. Reagent sequences are not shown.

no.	target gene	reagent	total luciferase, z-score	total luciferase, % of control	luciferase per cell, z-score	viable cells, % of control	Call
1	FLACC1	1	-0.263	76.7	0.709	71.1	inactive
2	FLACC1	2	-0.248	76.9	0.175	82.1	inactive
3	FLACC1	3	-0.298	76	-0.717	103	inactive
4	IL17A	1	0.538	92.6	2.54	53	inactive
5	IL17A	2	-0.283	76.3	0.304	78.6	inactive
6	IL17A	3	-1.23	57.3	-0.875	80.7	inactive
7	HYAL2	1	-0.403	73.9	-0.252	88.2	inactive
8	HYAL2	2	0.279	87.4	-0.488	111	inactive
9	HYAL2	3	0.16	85.1	1.25	68.4	inactive
10	TFEB	1	-0.579	70.4	-0.0586	79.9	inactive
11	TFEB	2	-1.12	59.7	-0.635	78.8	inactive
12	TFEB	3	-1.83	45.4	-1.04	66.8	inactive
13	MAB21L4	1	-0.298	75.9	0.28	78.8	inactive
14	MAB21L4	2	0.436	90.6	0.64	85.5	inactive
15	MAB21L4	3	0.471	91.2	0.416	91.4	inactive
16	DDX24	1	-3.24	17.3	-1.48	28.6	inactive
17	DDX24	2	-2.65	29.1	-2.36	60.6	inactive
18	DDX24	3	-1.67	48.7	-0.639	64.3	inactive
19	AKR7A2	1	-0.239	77.1	-0.561	99.9	inactive
20	AKR7A2	2	0.603	93.9	0.318	96.5	inactive
21	AKR7A2	3	1.28	107	0.27	112	inactive
22	PREP	1	0.7	95.8	0.455	95	inactive
23	PREP	2	-0.355	74.8	-0.176	87.6	inactive
24	PREP	3	0.734	96.5	0.281	100	inactive
25	LHFPL5	1	0.185	85.6	0.551	82.7	inactive
26	LHFPL5	2	1.91	120	2.14	76.4	inactive
27	LHFPL5	3	0.213	86.1	0.182	91.7	inactive
28	NR6A1	1	0.757	96.9	0.893	85.6	inactive
29	NR6A1	2	0.232	86.5	0.315	89	inactive
30	NR6A1	3	-0.223	77.5	-0.0255	87.1	inactive

Continued, starting with the last 5 of the part before.
no.	target gene	reagent	total luciferase, z-score	total luciferase, % of control	luciferase per cell, z-score	viable cells, % of control	Call
26	LHFPL5	2	1.91	120	2.14	76.4	inactive
27	LHFPL5	3	0.213	86.1	0.182	91.7	inactive
28	NR6A1	1	0.757	96.9	0.893	85.6	inactive
29	NR6A1	2	0.232	86.5	0.315	89	inactive
30	NR6A1	3	-0.223	77.5	-0.0255	87.1	inactive
31	TBX1	1	3.32	148	2.25	91.5	active
32	TBX1	2	3.25	147	2.94	75.6	active
33	TBX1	3	-0.29	76.1	-0.412	94.8	inactive
34	CDKL2	1	0.833	98.5	1.15	81.3	inactive
35	CDKL2	2	-0.885	64.3	-1.03	94.3	inactive
36	CDKL2	3	-0.438	73.2	-0.654	97.2	inactive
37	LRRC66	1	-1.06	60.8	-1.24	94.2	inactive
38	LRRC66	2	0.206	86	-0.00437	96.2	inactive
39	LRRC66	3	-1.79	46.3	-1.4	74.7	inactive
40	BOLA1	1	0.551	92.9	1.4	71.8	inactive
41	BOLA1	2	-0.112	79.7	-0.0504	90.2	inactive
42	BOLA1	3	0.324	88.3	0.0248	98.1	inactive
43	TFAM	1	-0.428	73.4	-0.804	101	inactive
44	TFAM	2	1.14	105	1.06	88.4	inactive
45	TFAM	3	0.5	91.8	0.297	94.9	inactive
46	ZFP62	1	2.06	123	1.65	88.9	inactive
47	ZFP62	2	-0.54	71.1	-0.738	96.6	inactive
48	ZFP62	3	0.421	90.3	0.255	94.3	inactive
49	PHOSPHO2	1	1.02	102	0.965	88.6	inactive
50	PHOSPHO2	2	-1.82	45.6	-1.18	69.5	inactive
51	PHOSPHO2	3	-2.05	41.2	-2.37	85.8	inactive
52	MYO18B	1	-1.9	44.1	-1.82	79.5	inactive
53	MYO18B	2	-0.539	71.2	-0.603	93.2	inactive
54	MYO18B	3	-1.12	59.6	-1.46	97.7	inactive
55	TRIM72	1	-0.145	79	-0.446	99.3	inactive
56	TRIM72	2	6.97	221	4.5	75.3	active
57	TRIM72	3	-1.14	59.3	-1.11	88.8	inactive
58	TRPS1	1	-0.383	74.3	-0.0727	84.6	inactive
59	TRPS1	2	-0.887	64.2	-0.189	75.4	inactive
60	TRPS1	3	-0.642	69.1	-0.93	98.7	inactive
61	MYCN	1	-0.16	78.7	-0.153	91.6	inactive
62	MYCN	2	0.0565	83	0.484	81.7	inactive
63	MYCN	3	0.908	100	0.7	92.9	inactive
64	APPL1	1	-0.0913	80.1	-0.178	93.8	inactive
65	APPL1	2	-0.123	79.4	-0.377	98	inactive
66	APPL1	3	0.176	85.4	-0.371	105	inactive
67	ACTC1	1	-1.23	57.5	-1.65	99.1	inactive
68	ACTC1	2	-0.196	78	-0.513	99.7	inactive
69	ACTC1	3	1.65	115	1.97	76.3	inactive
70	HOXA5	1	3.22	146	2.52	84.1	active
71	HOXA5	2	1.84	118	0.865	105	inactive
72	HOXA5	3	-1.4	54.1	-1.9	99.7	inactive
73	H3C7	1	2.87	139	1.98	92.1	inactive
74	H3C7	2	1.24	107	1.14	88.1	inactive
75	H3C7	3	-1.07	60.5	-2.1	118	inactive
